From doi:10.1101/2024.08.09.607194 come the findings set out here.

By UniProt entry, the sequences of proteins in these tests, tags left out.
UniProt O43526: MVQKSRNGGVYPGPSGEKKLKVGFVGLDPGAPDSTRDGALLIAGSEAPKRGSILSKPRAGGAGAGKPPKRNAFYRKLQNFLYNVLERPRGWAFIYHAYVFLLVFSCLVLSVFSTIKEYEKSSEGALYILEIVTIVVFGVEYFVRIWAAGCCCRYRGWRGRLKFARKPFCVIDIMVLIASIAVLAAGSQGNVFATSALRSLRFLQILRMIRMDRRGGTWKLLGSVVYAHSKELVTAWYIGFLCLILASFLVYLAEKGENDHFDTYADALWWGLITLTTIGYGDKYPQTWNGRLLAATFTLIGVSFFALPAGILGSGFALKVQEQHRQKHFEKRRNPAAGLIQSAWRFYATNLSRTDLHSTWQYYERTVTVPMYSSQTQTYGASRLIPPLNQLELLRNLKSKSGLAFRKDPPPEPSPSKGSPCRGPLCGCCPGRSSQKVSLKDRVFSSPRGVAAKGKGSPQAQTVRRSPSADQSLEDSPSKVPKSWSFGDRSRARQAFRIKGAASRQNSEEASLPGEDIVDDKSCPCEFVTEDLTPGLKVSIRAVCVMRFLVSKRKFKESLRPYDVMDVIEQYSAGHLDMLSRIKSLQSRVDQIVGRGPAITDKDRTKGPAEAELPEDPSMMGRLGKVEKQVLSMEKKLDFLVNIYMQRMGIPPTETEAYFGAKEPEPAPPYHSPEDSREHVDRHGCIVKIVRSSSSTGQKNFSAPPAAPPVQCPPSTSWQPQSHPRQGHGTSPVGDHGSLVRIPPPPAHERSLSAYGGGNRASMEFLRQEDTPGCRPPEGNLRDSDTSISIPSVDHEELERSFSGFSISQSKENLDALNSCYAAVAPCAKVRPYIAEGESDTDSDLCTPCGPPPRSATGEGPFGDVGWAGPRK
UniProt O88943: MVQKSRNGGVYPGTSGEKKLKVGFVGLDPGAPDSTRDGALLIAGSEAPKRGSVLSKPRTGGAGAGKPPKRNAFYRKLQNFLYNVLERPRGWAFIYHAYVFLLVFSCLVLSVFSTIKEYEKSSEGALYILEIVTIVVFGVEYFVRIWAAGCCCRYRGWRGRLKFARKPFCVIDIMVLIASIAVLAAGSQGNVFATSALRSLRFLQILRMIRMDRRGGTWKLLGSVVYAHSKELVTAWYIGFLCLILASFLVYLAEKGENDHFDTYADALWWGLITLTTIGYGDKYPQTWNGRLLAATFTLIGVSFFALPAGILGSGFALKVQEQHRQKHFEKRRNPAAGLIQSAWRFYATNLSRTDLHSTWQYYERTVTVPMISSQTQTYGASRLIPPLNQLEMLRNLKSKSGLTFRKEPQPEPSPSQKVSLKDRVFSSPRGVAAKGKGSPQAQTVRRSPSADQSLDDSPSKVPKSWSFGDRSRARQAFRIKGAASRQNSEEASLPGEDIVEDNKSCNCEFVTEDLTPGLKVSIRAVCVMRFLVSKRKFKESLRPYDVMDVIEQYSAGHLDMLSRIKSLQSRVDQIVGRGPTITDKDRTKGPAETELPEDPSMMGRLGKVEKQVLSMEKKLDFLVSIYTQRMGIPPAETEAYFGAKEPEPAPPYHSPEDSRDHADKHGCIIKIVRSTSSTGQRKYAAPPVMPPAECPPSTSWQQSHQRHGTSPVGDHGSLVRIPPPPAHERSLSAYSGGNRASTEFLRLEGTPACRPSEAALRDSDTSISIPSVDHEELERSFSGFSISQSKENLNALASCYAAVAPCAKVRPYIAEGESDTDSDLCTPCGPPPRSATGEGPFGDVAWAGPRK

Assay [1] deals with T1, TARP-γ2 (pcDNA3.1_TARPγ2) (UniProt Q71RJ2).
T1 sequence: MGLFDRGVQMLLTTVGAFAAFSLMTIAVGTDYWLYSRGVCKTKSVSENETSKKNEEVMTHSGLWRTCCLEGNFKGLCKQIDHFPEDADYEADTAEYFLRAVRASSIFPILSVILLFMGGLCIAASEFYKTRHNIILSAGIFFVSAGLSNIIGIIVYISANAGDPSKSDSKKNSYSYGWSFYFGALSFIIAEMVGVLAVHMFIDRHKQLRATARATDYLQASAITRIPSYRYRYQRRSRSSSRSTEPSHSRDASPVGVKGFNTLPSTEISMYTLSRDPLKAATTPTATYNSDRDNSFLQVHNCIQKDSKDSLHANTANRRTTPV
Kind of assay: co-IP.

The target in assay [2] is T2, TARP-γ3 (piRES2-EGFP_TARPγ3) (UniProt Q8VHX0).
T2 sequence: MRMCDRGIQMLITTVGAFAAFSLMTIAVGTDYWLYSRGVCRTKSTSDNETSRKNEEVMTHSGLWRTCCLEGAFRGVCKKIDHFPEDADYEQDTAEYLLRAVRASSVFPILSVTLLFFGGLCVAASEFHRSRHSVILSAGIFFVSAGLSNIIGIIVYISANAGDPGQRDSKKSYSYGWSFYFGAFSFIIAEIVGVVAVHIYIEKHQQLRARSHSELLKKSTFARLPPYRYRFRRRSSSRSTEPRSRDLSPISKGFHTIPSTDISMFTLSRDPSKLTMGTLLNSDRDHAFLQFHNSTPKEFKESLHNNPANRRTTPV
Kind of assay: co-IP.

Assay [3] concerns the target T3, TARP-γ8 (piRES2-EGFP_TARPγ8) (UniProt Q8VHW5).
T3 sequence: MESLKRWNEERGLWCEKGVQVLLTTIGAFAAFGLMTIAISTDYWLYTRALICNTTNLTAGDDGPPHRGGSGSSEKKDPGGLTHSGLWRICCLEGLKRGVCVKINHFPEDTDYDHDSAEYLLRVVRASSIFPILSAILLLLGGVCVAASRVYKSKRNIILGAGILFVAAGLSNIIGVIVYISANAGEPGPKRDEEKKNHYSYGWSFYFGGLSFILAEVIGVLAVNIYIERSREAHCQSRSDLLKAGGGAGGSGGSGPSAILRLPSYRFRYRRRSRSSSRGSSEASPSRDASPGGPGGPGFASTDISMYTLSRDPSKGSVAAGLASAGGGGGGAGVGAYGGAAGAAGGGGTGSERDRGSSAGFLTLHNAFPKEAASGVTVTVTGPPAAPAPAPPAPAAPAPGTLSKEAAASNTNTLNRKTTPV
Kind of assay: co-IP.

In assay [4] the target is T4, TARPγ2-CFAST-HA (from pFUGW_mCherry-TARPγ2-CFAST-HA) (UniProt Q71RJ2).
T4 sequence: T1 sequence
Kind of assay: split reporter.

Assay [5] addresses T5, TARP-γ3 (endogenous, rat hippocampal neurons) (rat (endogenous in hippocampal neurons)) (UniProt Q8VHX0).
T5 sequence: T2 sequence
In words: proximity ligation.

The target of assay [6] is T6, TARP-γ2 (stargazin; endogenous, rat neurons) (rat (endogenous in cortical and hippocampal neurons)) (UniProt Q71RJ2).
T6 sequence: T1 sequence
In words: proximity ligation.

The target of assay [7] is T7, TARP-γ8 (endogenous, rat hippocampal neurons) (rat (endogenous in hippocampal neurons)) (UniProt Q8VHW5).
T7 sequence: T3 sequence
Kind of assay: proximity ligation.

These are yes or no findings as the source states them, for the method shown. Binding seen in cells or lysates may run through a third protein. Some results given as binding are weak or reduced against the parent protein; the word gives no strength. For some of these results: Sequences can lack the tags named with a protein.

As for “EGFP-Kv7.2-HA (pEGFP-C2_Kv7.2-HA) (from UniProt O43526 1-872)”, the binding entry in assay [1], in assay [2] and in assay [3] was “binds” each time.

Consider “NFAST-FLAG-Kv7.2 (pFUGW_NFAST-FLAG-4xGGS-Kv7.2) (from UniProt O43526 1-872)”, for which, in assay [4], the binding entry is “binds”.

“Kv7.2 subunit of M-channels (endogenous, rat neurons) (from UniProt O88943 1-852)”: the binding result in assay [5], in assay [6] and in assay [7] was “binds” throughout.
